Source: article PMC6113207
These are yes or no findings as the source states them, for the method shown. In cells and extracts the contact can be indirect. Some binding calls cover weakened binding; strength is not graded here. For part of these data: Where a sequence is shown, tags or fusion partners need not be part of it. One block for each molecule: values may come before it.

Protein sequences, listed by entry. Tags and fused reporters are not part of them.
UniProt Q9H0J9: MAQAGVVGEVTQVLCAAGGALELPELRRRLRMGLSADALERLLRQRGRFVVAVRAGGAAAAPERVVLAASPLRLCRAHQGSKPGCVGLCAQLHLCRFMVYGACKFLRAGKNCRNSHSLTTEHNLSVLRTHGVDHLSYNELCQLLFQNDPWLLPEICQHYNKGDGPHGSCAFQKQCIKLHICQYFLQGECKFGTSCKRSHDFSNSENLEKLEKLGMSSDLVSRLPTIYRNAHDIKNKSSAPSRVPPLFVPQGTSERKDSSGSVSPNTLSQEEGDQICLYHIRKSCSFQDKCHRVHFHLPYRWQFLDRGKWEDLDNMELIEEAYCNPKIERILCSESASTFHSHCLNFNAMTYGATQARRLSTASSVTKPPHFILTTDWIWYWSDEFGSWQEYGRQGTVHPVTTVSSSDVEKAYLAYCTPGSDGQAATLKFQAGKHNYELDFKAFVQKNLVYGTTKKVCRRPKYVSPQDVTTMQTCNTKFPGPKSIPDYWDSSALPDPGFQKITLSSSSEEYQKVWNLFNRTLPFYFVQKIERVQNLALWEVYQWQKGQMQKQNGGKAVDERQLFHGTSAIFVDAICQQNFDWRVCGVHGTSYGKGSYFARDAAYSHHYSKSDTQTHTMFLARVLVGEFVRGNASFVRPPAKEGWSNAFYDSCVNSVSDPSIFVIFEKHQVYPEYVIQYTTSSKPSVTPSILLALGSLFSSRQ

Tests used:
[1] = molecular target: T1, SFB-tagged FHL2 (human) (UniProt Q14192); test: co-IP; exogenous IP: HEK293T co-transfected, NETN lysate, SFB-tagged protein captured on high-capacity streptavidin beads 3 h at 4 °C, five washes, Western blot
T1 sequence: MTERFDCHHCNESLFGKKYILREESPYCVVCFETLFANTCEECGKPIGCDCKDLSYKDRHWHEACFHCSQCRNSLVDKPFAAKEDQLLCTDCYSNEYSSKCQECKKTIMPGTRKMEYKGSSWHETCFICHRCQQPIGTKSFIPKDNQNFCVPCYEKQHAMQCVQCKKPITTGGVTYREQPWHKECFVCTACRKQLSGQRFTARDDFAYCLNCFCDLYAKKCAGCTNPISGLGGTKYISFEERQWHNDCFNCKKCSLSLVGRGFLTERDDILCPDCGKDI

[2] = molecular target: streptavidin-Flag-S protein (SFB)-tagged PARP12 (human) (UniProt Q9H0J9); test: as above
[3] = molecular target: PARP12, endogenous (human (endogenous in HEK293T, QGY-7703, Huh7)) (UniProt Q9H0J9); test: co-IP; endogenous reciprocal IP with anti-PARP12 and anti-FHL2 antibodies on protein-A/G beads, 3 h at 4 °C, NETN lysates of HEK293T, QGY-7703 and Huh7 cells; irrelevant IgG as negative control

binding [1]: binds
Molecule: GFP-tagged PARP12, wild type (from UniProt Q9H0J9 1-701) (enzyme)

binding [2]: binds
B1: HA-tagged FHL2 (HEK293T) (protein, UniProt Q14192-1 1-279)
chain: MTERFDCHHCNESLFGKKYILREESPYCVVCFETLFANTCEECGKPIGCDCKDLSYKDRHWHEACFHCSQCRNSLVDKPFAAKEDQLLCTDCYSNEYSSKCQECKKTIMPGTRKMEYKGSSWHETCFICHRCQQPIGTKSFIPKDNQNFCVPCYEKQHAMQCVQCKKPITTGGVTYREQPWHKECFVCTACRKQLSGQRFTARDDFAYCLNCFCDLYAKKCAGCTNPISGLGGTKYISFEERQWHNDCFNCKKCSLSLVGRGFLTERDDILCPDCGKDI

binding [3]: binds
B2: four-and-a-half LIM-only protein 2 (FHL2), endogenous (protein, UniProt Q14192 1-279)
chain: MTERFDCHHCNESLFGKKYILREESPYCVVCFETLFANTCEECGKPIGCDCKDLSYKDRHWHEACFHCSQCRNSLVDKPFAAKEDQLLCTDCYSNEYSSKCQECKKTIMPGTRKMEYKGSSWHETCFICHRCQQPIGTKSFIPKDNQNFCVPCYEKQHAMQCVQCKKPITTGGVTYREQPWHKECFVCTACRKQLSGQRFTARDDFAYCLNCFCDLYAKKCAGCTNPISGLGGTKYISFEERQWHNDCFNCKKCSLSLVGRGFLTERDDILCPDCGKDI
